PubChem BioAssay AID1508588 | Peter MacCallum Cancer Centre – 2020
Purpose: 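Knock-downs boosting vemurafenib effects on melanoma cell growth or lactate release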 (primary screen). Cell system: human WM266.4 melanoma cells (BRAF V600 mutant). Reagents: siRNA pool against human genes, 40 nM. Timing: 96 h from transfection to read-out. Challenge: vemurafenib 300 nM (about IC25), added 48 h after transfection, for 48 h; comparison arm got DMSO vehicle only. Read-out: 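Ratios to non-targeting siRNA for cell gain, counted as DAPI nuclei after minus before drug and averaged over two replicates, and for absorbance-read medium lactate per cell; both binned into fold-change classes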. Reading the numbers: cell gain with vemurafenib: higher = more cell gain than with non-targeting siRNA; lactate per cell with vemurafenib: higher = more lactate made per cell. Active means: 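a knock-down counts as enhancing when its fold-change classes with vehicle and with vemurafenib, taken together, show a stronger drug effect on cell gain or lactate per cell; exact class pairs not stated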. Meaning of the calls: active = enhances vemurafenib effect; inactive = no enhancement seen.
Shown is one part, drawn at random, of about 18,000 reagents tested. In the full data, 790 (4.4%) were called active. 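Calls rest on a combination of fold-change classes in drug and vehicle arms, not all shown here.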 Unmarked entries are inactive. The numbers tell different reagents against one gene apart. Reagent sequences are not shown.

no.	Gene	pool no.	cell gain with vemurafenib	lactate per cell with vemurafenib
1	RTP3 (receptor transporter protein 3)	1	0.53	0.66
2	MYO10 (myosin X)	1	0.64	1.07
3	CFAP52 (cilia and flagella associated protein 52)	1	0.59	0.64
4	ANKK1 (ankyrin repeat and kinase domain containing 1)	1	0.52	1.04
5	SSX6P (SSX family member 6, pseudogene)	1	0.64	1.19
6	CAB39L (calcium binding protein 39 like)	1	0.49	0.2
7	USH1C (USH1 protein network component harmonin)	1	0.49	0.72
8	SCAND3 (SCAN domain containing 3)	1	0.92	0.82
9	IQGAP1 (IQ motif containing GTPase activating protein 1)	1	0.43	0.89
10	SNX3 (sorting nexin 3)	1	0.78	0.67
11	MYL7 (myosin light chain 7)	1	0.1	3.18
12	DBR1 (debranching RNA lariats 1)	1	0.31	0.5
13	GCOM1 (GCOM1, MYZAP-POLR2M combined locus)	1	0.54	0.83
14	KLK2 (kallikrein related peptidase 2)	1	0.9	0.92
15	HEPACAM2 (HEPACAM family member 2)	1	0.68	0.74
16	MEOX2 (mesenchyme homeobox 2)	1	0.57	0.56
17	HEY2	1	0.65	0.94
18	B3GLCT (beta 3-glucosyltransferase)	1	0.4	0.45
19	HOXA9 (homeobox A9)	1	0.69	0.88
20	SGCG (sarcoglycan gamma)	1	0.84	0.71
21	MGST3 (microsomal glutathione S-transferase 3)	1	0.62 (active)	0.42
22	PDCL2 (phosducin like 2)	1	0.75	0.59
23	TMEM95 (transmembrane protein 95)	1	0.7	0.6
24	TENM3 (teneurin transmembrane protein 3)	1	0.94	0.96
25	SYS1 (SYS1 golgi trafficking protein)	1	0.19	0.72
26	UGGT2 (UDP-glucose glycoprotein glucosyltransferase 2)	1	0.93	1.01
27	PAPOLG (poly(A) polymerase gamma)	1	0.54	0.74
28	MSH6 (mutS homolog 6)	1	0.69	0.97
29	HNRNPF (heterogeneous nuclear ribonucleoprotein F)	1	0.18 (active)	0.45
30	SPSB3 (splA/ryanodine receptor domain and SOCS box containing 3)	1	0.32	1.53
31	OR3A2 (olfactory receptor family 3 subfamily A member 2)	1	0.88	0.6
32	NLRX1 (NLR family member X1)	1	0.55	1.23
33	HPF1 (histone PARylation factor 1)	1	0.81	1.1
34	TIPRL (TOR signaling pathway regulator)	1	0.6	2
35	SMARCA2	1	0.76	0.47
36	CCDC62 (coiled-coil domain containing 62)	1	0.58	1.02
37	RAB3GAP2 (RAB3 GTPase activating non-catalytic protein subunit 2)	1	0.8	0.52
38	DDX55 (DEAD-box helicase 55)	1	0.25	2
39	SYNJ2 (synaptojanin 2)	1	0.56	0.74
40	PRKCD (protein kinase C delta)	1	0.18	1.59
41	OIT3 (oncoprotein induced transcript 3)	1	1.01	1.25
42	IGSF9 (immunoglobulin superfamily member 9)	1	0.5	1.17
43	PDPN (podoplanin)	1	0.62	0.72
44	COPS5 (COP9 signalosome subunit 5)	1	0.7	1.14
45	NUDT18 (nudix hydrolase 18)	1	0.94	0.61
46	PYGL (glycogen phosphorylase L)	1	0.74 (active)	0.65
47	TBC1D24 (TBC1 domain family member 24)	1	0.28	0.8
48	ARFRP1 (ARF related protein 1)	1	0.08	1.51
49	SCAMP4	1	0.65	1.19
50	KCNH1 (potassium voltage-gated channel subfamily H member 1)	1	0.58	0.27
51	CRISP1 (cysteine rich secretory protein 1)	1	0.19	1.61
52	PCDH11Y (protocadherin 11 Y-linked)	1	0.99	0.62
53	ETS1 (ETS proto-oncogene 1, transcription factor)	1	0.6	1.15
54	EPHA4 (EPH receptor A4)	1	0.41	0.96
55	FERMT2 (FERM domain containing kindlin 2)	1	0.62	0.76
56	HYDIN (HYDIN axonemal central pair apparatus protein)	1	0.68	0.48
57	HNRNPA0 (heterogeneous nuclear ribonucleoprotein A0)	1	0.92	1.44
58	DTX3L (deltex E3 ubiquitin ligase 3L)	1	0.91	0.61
59	ATOX1 (antioxidant 1 copper chaperone)	1	0.69	0.85
60	LRRC40 (leucine rich repeat containing 40)	1	0.15	0.81
61	IQCE (IQ motif containing E)	1	1.28	0.4
62	ASGR1 (asialoglycoprotein receptor 1)	1	0.79	0.77
63	SS18 (SS18 subunit of BAF chromatin remodeling complex)	1	0.73 (active)	0.68
64	DEGS2 (delta 4-desaturase, sphingolipid 2)	1	0.83	0.77
65	OR5K4 (olfactory receptor family 5 subfamily K member 4)	1	0.21	1.33
66	DCDC1 (doublecortin domain containing 1)	1	0.65	1.29
67	DCDC1 (doublecortin domain containing 1)	2	0.74	1.22
68	UBR7 (ubiquitin protein ligase E3 component n-recognin 7)	1	0.95	0.8
69	POLM (DNA polymerase mu)	1	0.7	1.04
70	ATP6V1G3 (ATPase H+ transporting V1 subunit G3)	1	0.88	1.12
71	OR6M1 (olfactory receptor family 6 subfamily M member 1)	1	0.76	0.6
72	WNT8A (Wnt family member 8A)	1	0.33 (active)	0.46
73	CH25H (cholesterol 25-hydroxylase)	1	0.65	1.46
74	FHIP2A (FHF complex subunit HOOK interacting protein 2A)	1	0.34	0.96
75	AMPH (amphiphysin)	1	0.68	0.92
76	C11orf24 (chromosome 11 open reading frame 24)	1	0.68 (active)	0.48
77	PIPOX (pipecolic acid and sarcosine oxidase)	1	0.38	0.24
78	C10orf95 (chromosome 10 open reading frame 95)	1	0.17	0.95
79	DEFB107A (defensin beta 107A)	1	0.7	0.62
80	TFE3 (transcription factor binding to IGHM enhancer 3)	1	1.1	1.06
81	RAET1G (retinoic acid early transcript 1G)	1	0.13	2.43
82	RBM42 (RNA binding motif protein 42)	1	0.17	1.13
83	SH3RF3 (SH3 domain containing ring finger 3)	1	0.61	0.54
84	C3orf38 (chromosome 3 open reading frame 38)	1	0.18	2.16

Entries listed so far whose gene name starts with D or d (7):
Gene	pool no.	cell gain with vemurafenib	lactate per cell with vemurafenib
DBR1 (debranching RNA lariats 1)	1	0.31	0.5
DDX55 (DEAD-box helicase 55)	1	0.25	2
DTX3L (deltex E3 ubiquitin ligase 3L)	1	0.91	0.61
DEGS2 (delta 4-desaturase, sphingolipid 2)	1	0.83	0.77
DCDC1 (doublecortin domain containing 1)	1	0.65	1.29
DCDC1 (doublecortin domain containing 1)	2	0.74	1.22
DEFB107A (defensin beta 107A)	1	0.7	0.62
